# Source: the supplement of paper PMC4635364
# Where a name gives a salt, the structure may show the parent alone. This is one part of the list. This data set is noisy: repeats of one test often differ as much as different tests do.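 Human fetal ventral-midbrain neural progenitor line ReNCell VM, differentiated without mitogens. Images stained for doublecortin (early neurons) or tyrosine hydroxylase (dopaminergic neurons) were scored by blinded raters against untreated wells (0 = no change). Repeats and both raters were averaged, and compounds averaging 2 or higher were picked as hits for retesting.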
# Legend:
# ReNCell VM [1] = assay: neuronal differentiation score (DCX+ cell fraction vs untreated, manual image score) (score (-3 to 3)); higher = more neuronal differentiation; conditions: 2 uM, 2 weeks
# ReNCell VM [2] = assay: dopaminergic neuron differentiation score (TH+ cell fraction vs untreated, manual image score) (score (0 to 3)); higher = more TH+ dopaminergic neuron differentiation; conditions: 2 uM, 4 weeks, BDNF 10 ng/ml + GDNF 10 ng/ml
compound,measurement,setting,value
C=C[C@H]1CN2CC[C@H]1C[C@H]2[C@H](O)c1ccnc2ccc(OC)cc12,neuronal differentiation score,ReNCell VM [1]; library: Spectrum,inactive: 0
same,dopaminergic neuron differentiation score,ReNCell VM [2]; library: Spectrum,inactive: 0
COc1ccc(CCN(C)CCCC(C#N)(c2ccc(OC)c(OC)c2)C(C)C)cc1OC (stereo unspecified) [Verapamil hydrochloride],neuronal differentiation score,ReNCell VM [1]; library: Prestwick,inactive: 0
same,dopaminergic neuron differentiation score,ReNCell VM [2]; library: Prestwick,inactive: 0
CCn1cc(C(=O)O)c(=O)c2cc(F)c(N3CCNCC3)cc21,neuronal differentiation score,ReNCell VM [1]; library: Spectrum,inactive: 0
same,dopaminergic neuron differentiation score,ReNCell VM [2]; library: Spectrum,inactive: 0
"N/C(=N\C(=O)c1nc(Cl)c(N)nc1N)NCc1ccc(Cl)c(Cl)c1 [3',4'-Dichlorobenzamil]",neuronal differentiation score,ReNCell VM [1]; library: LOPAC,inactive: 0
same,dopaminergic neuron differentiation score,ReNCell VM [2]; library: LOPAC,inactive: 0
CS(=O)(=O)c1ccc(C2=C(c3ccccc3)C(=O)OC2)cc1,neuronal differentiation score,ReNCell VM [1]; library: Spectrum,inactive: 0
same,dopaminergic neuron differentiation score,ReNCell VM [2]; library: Spectrum,inactive: 0
O=C1C(O)=C(O)C(=O)C(O)=C1O,neuronal differentiation score,ReNCell VM [1]; library: Spectrum,inactive: 0
same,dopaminergic neuron differentiation score,ReNCell VM [2]; library: Spectrum,inactive: 0
NC(=O)c1cn(Cc2c(F)cccc2F)nn1 [Rufinamide],neuronal differentiation score,ReNCell VM [1]; library: LOPAC,inactive: 0
same,dopaminergic neuron differentiation score,ReNCell VM [2]; library: LOPAC,inactive: 0
CC(=O)Oc1cccc(C(=O)O)c1OC(C)=O,neuronal differentiation score,ReNCell VM [1]; library: Spectrum,inactive: 0
same,dopaminergic neuron differentiation score,ReNCell VM [2]; library: Spectrum,inactive: 0
C[C@]12CCC(=O)C=C1CC[C@@H]1[C@@H]2[C@@H](O)C[C@@]2(C)[C@H]1CC[C@]2(O)C(=O)CO [Hydrocortisone base],neuronal differentiation score,ReNCell VM [1]; library: Prestwick,inactive: 0
same,dopaminergic neuron differentiation score,ReNCell VM [2]; library: Prestwick,inactive: 0
CCN(CC)CCNC(=O)c1cc(Cl)c(N)cc1OC [Metoclopramide hydrochloride],neuronal differentiation score,ReNCell VM [1]; library: LOPAC,inactive: 0
same,dopaminergic neuron differentiation score,ReNCell VM [2]; library: LOPAC,inactive: 0
Cc1cc(CC(=O)O)n(C)c1C(=O)c1ccc(Cl)cc1,neuronal differentiation score,ReNCell VM [1]; library: Spectrum,inactive: -1
same,dopaminergic neuron differentiation score,ReNCell VM [2]; library: Spectrum,inactive: 0
CC(C(=O)O)c1cccc(Oc2ccccc2)c1 (stereo unspecified) [Fenoprofen calcium salt dihydrate],neuronal differentiation score,ReNCell VM [1]; library: Prestwick,inactive: 0
same,dopaminergic neuron differentiation score,ReNCell VM [2]; library: Prestwick,inactive: 0
COc1ccc([C@@H]2CC(=O)c3c(O)cc(O)cc3O2)cc1O,neuronal differentiation score,ReNCell VM [1]; library: Spectrum,inactive: 0
same,dopaminergic neuron differentiation score,ReNCell VM [2]; library: Spectrum,inactive: 0

# Quoted at random: two records from the list, in no set order.
compound,measurement,setting,value
CCn1cc(C(=O)O)c(=O)c2cc(F)c(N3CCNCC3)cc21,dopaminergic neuron differentiation score,ReNCell VM [2]; library: Spectrum,inactive: 0
Cc1cc(CC(=O)O)n(C)c1C(=O)c1ccc(Cl)cc1,neuronal differentiation score,ReNCell VM [1]; library: Spectrum,inactive: -1
